Paper PMC10598926
Results are given in words; binding and its absence hold for the method and conditions named. In cells and extracts the contact can be indirect. Some entries that bind do so weakly or less than the wild type.

Protein sequences, listed by entry. Tags and fused reporters are not part of them.
UniProt P09429: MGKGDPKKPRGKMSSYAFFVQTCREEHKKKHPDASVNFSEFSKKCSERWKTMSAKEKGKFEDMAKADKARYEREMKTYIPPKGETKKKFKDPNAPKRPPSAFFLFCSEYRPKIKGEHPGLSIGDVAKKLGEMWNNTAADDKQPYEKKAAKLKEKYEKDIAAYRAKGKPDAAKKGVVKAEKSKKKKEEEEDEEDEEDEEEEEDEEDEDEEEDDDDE

Columns and labels:
[1] = biological target: T1, HBHP-scr peptide (scrambled HBHP); assay: pull-down; biotinylated HBHP or HBHP-scr peptide in Eto-CM of A549 cells, precipitated with Neutravidin Agarose beads; eluates blotted for HMGB1 and Hsp70; only the target purified
T1 sequence (peptide, biotin on N-terminus): PMQSKHV

[2] = biological target: T2, HBHP peptide (HMGB1 binding heptamer peptide); assay: as above
T2 sequence (peptide, biotin on N-terminus): HMSKPVQ

Which binding [1] does the source give for “HMGB1 (high mobility group protein B1) of A549 cells (endogenous) (from UniProt P09429 1-215)” here?
The binding was “no binding”.

What about the binding [2] of the same substance?
Its binding is “binds”.
